Test results taken from patent publication US20140057284A1, “PHOTOLUMINESCENT MOLECULAR COMPLEX AND METHOD FOR DETERMINING OF THE CONCENTRATION OF SAID MOLECULAR COMPLEX” (priority 2011, published 2014).

Test system: PK
Test: Time-resolved luminescence of probes bound to protein kinases
Assay type: binding

CN(C)c1ccc2c(c1)Oc1cc(N(C)C)ccc1C21OC(=O)c2cc(C(=O)NCCCC[C@@H](NC(=O)[C@@H](CCCNC(=N)N)NC(=O)[C@@H](CCCNC(=N)N)NC(=O)[C@@H](CCCNC(=N)N)NC(=O)[C@@H](CCCNC(=N)N)NC(=O)[C@@H](CCCNC(=N)N)NC(=O)[C@@H](CCCNC(=N)N)NC(=O)CCCCCNC(=O)[C@@H](CCCNC(=N)N)NC(=O)CCCCCNC(=O)c3ccc(-c4ccnc(N)n4)s3)C(N)=O)ccc21 [ARC-669]
luminescence lifetime of the signal (bound to PK, dependent on the PK): 50-300 microseconds | increase of the luminescence signal on binding to a PK (ex 337 (50) nm, 50 microsecond delay, 100 microsecond window, em 590 (40) nm): 50-2500 fold
